In PubChem BioAssay AID1508600 (Functional Genomics Laboratory (NCATS/FGL), 2020):
About 3,700 (7%) of roughly 53,000 sequences were called active.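 Rule for the calls: active = gene knockdowns whose robust z-score for IL-1 alpha signal is at least 2 or at most -2, so actives lie on both sides; inactive = the rest.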 This is one part of the list.

Experiment: Components of the Cytosolic LPS Sensing Pathway: Gene Identification via Genome-wide siRNA Screen;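 note: robust z of the log signal after scaling to non-targeting control siRNA wells of the plate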
Details: RAW264.7 macrophages, IL-1a HTRF, actives lie on both sides, screened at 100 nM (by protocol), cells primed 5 h with Pam3CSK4 first
Summary of the method: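 Read-out: IL-1a HTRF on supernatant, divided by plate negative-control median ×100, log-transformed and converted to robust z-score. Cells were RAW264.7 given 100 nM siRNA, Pam3CSK4-primed 5 hours, then LipidA-transfected 24 hour.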

Row | Sequence | z-score
1 | GAAGUGAUGCUGCUAGUAGTT against A030005L19Rik | inactive: -2
2 | CCAUAUGGCAGUUUUGGCUTT against Vmn1r65 | inactive: -1.3
3 | GCACCAUUGACUCAGUUAATT against Gipc2 | inactive: -1.3
4 | GGCCGGAGAAAAACUUUUGTT against Olfr1406 | inactive: -0.504
5 | GGUGAAUGUAUAAGUUAUGTT against Icam1 | inactive: 1
6 | GCGAAUGCUGGAGAAACUUTT against Aif1 | inactive: -0.351
7 | GCCCACUCACACCUAUUCUTT against Olfr1388 | inactive: 0.406
8 | GGAUGAUUUCCAGAUCCAGTT against Nrsn1 | inactive: -0.633
9 | CCGUACUUAUGUUAGCUGATT against Csnk1a1 | inactive: 1.04
10 | GCUAUUGACAUAAUGAGGCTT against Nfe2l3 | inactive: -1.41
11 | GGAGGAAGACACUCCCUCUTT against Atf4 | inactive: -0.778
12 | GGGCAUCAUCACUUGUGCCTT against Kcp | inactive: 0.891
13 | GCUCAUGCAACUCUGCGUUTT against Dpyd | inactive: -0.693
14 | GGUUUGCCCUGACACUUGUTT against Rtbdn | inactive: -0.754
15 | GCAAUGAGCCAUUAAAGUGTT against Prxl2b | inactive: 0.331
16 | CCACAUCUAGAUUUUGACUTT against Cep295 | inactive: -0.56
17 | GCUACAACCCUGUCUGACATT against P4hb | inactive: -0.79
18 | GCUAGUGGUAAGUCAACCATT against Iqsec1 | inactive: -0.882
19 | GCUGCUUACACAGGAUGUATT against Abcd3 | inactive: -0.146
20 | GCCAAGGAUGCAGAUAUCGTT against Slc25a45 | inactive: -0.842
21 | CCCUUAUCAUCGUCAAUAGTT against Slc50a1 | inactive: 0.932
22 | GGCCCAAGAGAACAUCAAATT against Speer2 | active: -2.16
23 | GGAUAGUGUGGUUUUAUAUTT against Ercc6l | inactive: -0.351
24 | GUCAGAACCAUAGCCAUGATT against Vmn1r202 | inactive: -0.623
25 | GGAGUUUACAUGAGUACUATT against Slco1a6 | inactive: 0.577
26 | GAACGGGUUACCAUGUGGUTT against Xkr9 | inactive: 0.546
27 | CCUUCAUGUAAUGAAGGCCTT against Rps10 | inactive: 0.549
28 | GGACACAGACAAUGAAAUGTT against Fetub | active: -2.35
29 | CCCGCUUGUUCUGAUGAUATT against 2310039H08Rik | active: -2.26

Part of the list above, with tabs:
Row	Sequence	z-score
12	GGGCAUCAUCACUUGUGCCTT against Kcp	inactive: 0.891
24	GUCAGAACCAUAGCCAUGATT against Vmn1r202	inactive: -0.623
